Laboratory results: patent publication US5908924A, “Cloning and expression of the gene encoding thermoanaerobacter ethanolicus 39E secondary-alcohol dehydrogenase and enzyme biochemical characterization” (Michigan State University, priority 1997, dated 1999)
At least one structure is not confirmed: it was looked up by name or label, or the drawing left a doubt.

Target: T1, recombinant T. ethanolicus 2° Adh (Thermoanaerobacter pseudethanolicus, UniProt B0KBL1)
T1 sequence (B0KBL1 2-353): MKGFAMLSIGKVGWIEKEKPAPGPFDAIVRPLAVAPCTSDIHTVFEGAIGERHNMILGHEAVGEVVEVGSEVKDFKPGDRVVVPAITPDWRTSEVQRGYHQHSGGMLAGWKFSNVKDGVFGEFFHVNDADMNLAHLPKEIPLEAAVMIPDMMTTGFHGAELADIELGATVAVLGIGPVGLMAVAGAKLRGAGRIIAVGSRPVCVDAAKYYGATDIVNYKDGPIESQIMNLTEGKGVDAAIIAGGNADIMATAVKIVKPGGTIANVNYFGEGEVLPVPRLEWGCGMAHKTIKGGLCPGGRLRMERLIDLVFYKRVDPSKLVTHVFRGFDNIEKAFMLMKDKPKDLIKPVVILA
Assay: chemical modification (DTNB, DEPC) and reactivation by DTT with metal salts or EDTA
Type: biochemical, Thermoanaerobacter ethanolicus 39E
Parameters: homotetramer
Conditions: at both 25° C. and 60° C.
Method: Cysteine residues were reversibly modified using dithionitrobenzoate (DTNB) at 25° C. and 60° C.. […] Histidine residues were chemically modified with diethylpyrocarbonate (DEPC) by incubation with 20 mM or 40 mM DEPC in 50 mM phosphate buffer (pH 6.0) at 25° C. for 1.0 h and the reaction was quenched by addition of 0.5×volume of 0.5 M imidazole (pH 6.5).

`O=C(O)c1cc(SSc2ccc([N+](=O)[O-])c(C(=O)O)c2)ccc1[N+](=O)[O-]` [DTNB, dithionitrobenzoate] was tested, and the “enzyme inactivation by cysteine-specific modification” value was “completely inactivated”.
